These are yes or no findings as the source states them, for the method shown. Binding seen in cells or lysates may run through a third protein. A result given as binding can be weak or reduced; the word gives no strength. One block for each substance: values may come before it.
Columns and labels:
[1] = biological target: Flag-tagged ATG5 (human) (UniProt Q9H1Y0); test: co-IP; HEK293T; HA-SDE2 variants (full-length and truncations) with Flag-tagged ATG5
[2] = biological target: Flag-tagged SDE2 (wild-type) (human) (UniProt Q6IQ49); test: co-IP; HEK293T co-transfected with Myc-tagged ATG5 and Flag-tagged SDE2 (wild-type or Δ1); immunoprecipitation with anti-Flag, immunoblot with anti-Myc and anti-Flag
[3] = biological target: ATG5 (endogenous, KMS-11 cells) (human (endogenous in KMS-11)) (UniProt Q9H1Y0); test: co-IP + cross-linking; endogenous proteins in KMS-11 lysate; lysate treated with 1 mM EDC for 30 min at room temperature before immunoprecipitation; anti-SDE2 or anti-ATG5 overnight at 4 °C, Protein A/G agarose, Western blot

By UniProt entry, the sequences of proteins in these tests, tags left out. Where a name states a change or a piece, a line headed by the entry shows the natural chain unless it says otherwise.
UniProt Q9H1Y0: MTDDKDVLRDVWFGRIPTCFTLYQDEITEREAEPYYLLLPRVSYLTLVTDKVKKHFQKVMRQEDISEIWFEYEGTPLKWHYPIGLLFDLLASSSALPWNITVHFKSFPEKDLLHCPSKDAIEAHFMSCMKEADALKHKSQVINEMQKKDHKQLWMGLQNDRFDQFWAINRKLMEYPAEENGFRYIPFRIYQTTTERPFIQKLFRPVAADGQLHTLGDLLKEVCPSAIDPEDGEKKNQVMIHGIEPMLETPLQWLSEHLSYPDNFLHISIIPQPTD
UniProt Q6IQ49: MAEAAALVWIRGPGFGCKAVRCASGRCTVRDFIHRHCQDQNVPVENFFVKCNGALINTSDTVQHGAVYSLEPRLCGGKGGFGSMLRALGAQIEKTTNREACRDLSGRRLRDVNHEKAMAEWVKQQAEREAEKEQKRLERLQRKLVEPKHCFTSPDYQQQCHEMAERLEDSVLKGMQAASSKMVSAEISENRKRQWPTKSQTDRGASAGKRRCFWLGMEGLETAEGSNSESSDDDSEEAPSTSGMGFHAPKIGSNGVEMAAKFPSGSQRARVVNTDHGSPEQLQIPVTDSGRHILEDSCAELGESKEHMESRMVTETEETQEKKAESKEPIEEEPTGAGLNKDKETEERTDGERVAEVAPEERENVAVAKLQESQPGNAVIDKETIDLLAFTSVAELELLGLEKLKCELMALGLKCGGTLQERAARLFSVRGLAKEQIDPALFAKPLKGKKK

- binding [1]: binds
Substance: HA-SDE2 full-length (from UniProt Q6IQ49-1)

- binding [2]: binds
Substance: Myc-tagged ATG5 (from UniProt Q9H1Y0-1 1-275)

- binding [3]: binds
Substance: SDE2 (endogenous, KMS-11 cells) (from UniProt Q6IQ49)

From publication PMC12907901
